We go through two molecules from PMC10480782.

Chains of the proteins cited; added tags and fusions are not shown.
UniProt P52294: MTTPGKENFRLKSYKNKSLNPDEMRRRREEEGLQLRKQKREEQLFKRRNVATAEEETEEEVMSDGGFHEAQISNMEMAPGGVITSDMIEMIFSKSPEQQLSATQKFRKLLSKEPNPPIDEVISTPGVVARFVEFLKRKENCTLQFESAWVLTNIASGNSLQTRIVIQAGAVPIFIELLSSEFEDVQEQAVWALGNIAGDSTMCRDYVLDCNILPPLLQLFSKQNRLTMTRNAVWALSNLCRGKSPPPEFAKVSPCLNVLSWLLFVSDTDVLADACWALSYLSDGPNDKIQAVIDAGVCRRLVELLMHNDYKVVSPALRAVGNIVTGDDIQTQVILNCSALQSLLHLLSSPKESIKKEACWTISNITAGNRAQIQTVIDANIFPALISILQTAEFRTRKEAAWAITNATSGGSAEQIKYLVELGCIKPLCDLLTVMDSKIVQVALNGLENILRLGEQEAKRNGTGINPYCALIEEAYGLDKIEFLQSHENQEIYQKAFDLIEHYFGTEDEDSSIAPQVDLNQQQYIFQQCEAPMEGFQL

Results are given in words; binding and its absence hold for the method and conditions named. Binding seen in cells or lysates may run through a third protein. Some entries that bind do so weakly or less than the wild type. For part of these data: Sequences can lack the tags named with a protein.

Holding throughout (test): co-IP
In assay [1] the target is Flag-KPNA1 (karyopherin α1) (UniProt P52294).
The target in a further assay is Flag-tagged NuTF2 (UniProt P61970).
The target of assay [2] is T1, Flag-TBK1 (tank-binding kinase 1) (UniProt Q9UHD2).
T1 sequence: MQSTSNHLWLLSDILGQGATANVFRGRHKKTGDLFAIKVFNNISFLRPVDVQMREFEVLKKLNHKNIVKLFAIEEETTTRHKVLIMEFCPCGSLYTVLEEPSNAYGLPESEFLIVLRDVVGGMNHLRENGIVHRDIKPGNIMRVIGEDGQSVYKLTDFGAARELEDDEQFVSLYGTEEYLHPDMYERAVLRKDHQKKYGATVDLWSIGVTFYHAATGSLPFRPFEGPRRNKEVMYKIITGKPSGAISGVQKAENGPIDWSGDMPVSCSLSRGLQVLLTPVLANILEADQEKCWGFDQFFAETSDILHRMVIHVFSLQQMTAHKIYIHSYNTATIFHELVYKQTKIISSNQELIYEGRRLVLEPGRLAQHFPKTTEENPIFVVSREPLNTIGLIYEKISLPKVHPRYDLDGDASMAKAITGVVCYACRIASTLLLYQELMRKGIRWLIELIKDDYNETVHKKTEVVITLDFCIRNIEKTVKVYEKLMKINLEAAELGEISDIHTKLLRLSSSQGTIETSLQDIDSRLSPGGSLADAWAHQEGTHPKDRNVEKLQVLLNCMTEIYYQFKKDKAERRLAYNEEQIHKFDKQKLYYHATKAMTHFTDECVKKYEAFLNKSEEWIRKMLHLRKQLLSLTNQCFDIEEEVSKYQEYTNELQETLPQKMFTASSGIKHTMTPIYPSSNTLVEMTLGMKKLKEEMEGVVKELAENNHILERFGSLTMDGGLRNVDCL

For the molecule “HA-Nsp15 (SARS-CoV-2 Nsp15) (from UniProt P0DTD1)”, the binding entry in assay [1] is listed as “binds”; with Flag-tagged NuTF2, “no binding”.

B1: EGFP-IRF3 (human IRF3 in pEGFP-C1) (protein, UniProt Q14653 1-427)
chain: MGTPKPRILPWLVSQLDLGQLEGVAWVNKSRTRFRIPWKHGLRQDAQQEDFGIFQAWAEATGAYVPGRDKPDLPTWKRNFRSALNRKEGLRLAEDRSKDPHDPHKIYEFVNSGVGDFSQPDTSPDTNGGGSTSDTQEDILDELLGNMVLAPLPDPGPPSLAVAPEPCPQPLRSPSLDNPTPFPNLGPSENPLKRLLVPGEEWEFEVTAFYRGRQVFQQTISCPEGLRLVGSEVGDRTLPGWPVTLPDPGMSLTDRGVMSYVRHVLSCLGGGLALWRAGQWLWAQRLGHCHTYWAVSEELLPNSGHGPDGEVPKDKEGGVFDLGPFIVDLITFTEGSGRSPRYALWFCVGESWPQDQPWTKRLVMVKVVPTCLRALVEMARVGGASSLENTVDLHISNSHPLSLTSDQYKAYLQDLVEGMDFQGPGES
Take B1: in assay [2], the binding result is recorded as “binds”.
